Results reported in US9734282B2, “Biological dataset profiling of cardiovascular disease and cardiovascular inflammation” (DISCOVERX CORPORATION, priority 2005, dated 2017).
At least one compound was matched to its structure with a doubt left.

System: HUVEC and HUVEC + PBMC systems
Experiment: 4 system BioMAP activity profile (3C, 4H, LPS, SAg)
Format: cell-based, human
Conditions: data not shown
Procedure: Human umbilical vein endothelial cells (HUVEC) were cultured according to standard methods, and plated into microtiter plates. Peripheral blood mononuclear cells (PBMC) were prepared from buffy coats from normal human donors according to standard methods. Experiments were performed by culturing HUVEC in microtiter plates in the presence of cytokines (IL-1b, 1 ng/ml; TNF-a, 5 ng/ml; and IFN-g, 100 ng/ml, or IL-4, 5 ng/ml and histamine, […]), activators (SAg, 20 ng/ml or LPS, 0.2 ng/ml), and/or PBMC (7.5×10^4 cells/well) for 24 h. Compounds were tested at the indicated concentrations. […]
The levels of readout parameters (proteins) were measured by cell-based ELISA. […] Plates were washed and developed with TMB substrate and the absorbance (OD) was read at 450 nm (subtracting the background absorbance at 650 nm). Other readout parameters include: total protein levels (SRB assay), measuring the viability of peripheral blood mononuclear cells (incorporation of propidium iodide); and microscopic visualization. SRB was performed by staining cells with 0.1% sulforhodamine B after fixation with 10% TCA, and reading wells at 560 nm. PBMC viability was assessed by adding propidium iodide (10 mg/ml) to PBMC that had been cultured for 24 hours in the presence of activators and measuring the percentage of cells that incorporated dye by flow cytometry after 10 minutes. […]

CCC(C)(C)C(=O)O[C@H]1C[C@@H](C)C=C2C=C[C@H](C)[C@H](CC[C@@H]3C[C@@H](O)CC(=O)O3)[C@H]21 [simvastatin]
BioMAP profile compared with the lovastatin profile: induce the same BioMAP profile
